Results taken from the supplement of paper PMC11438910.
Some of the results follow. Only a few entries rise above the background.

Key:
Test in all cases: fluorescence intensity of antibody binding to polysaccharide-coupled beads; higher = stronger binding
[1] = target: pneumococcal polysaccharide Pn16F
Protocol: (§1)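 Recombinant rhesus-murine chimeric IgG1 antibodies were tested against antigen-coupled MagPlex beads in a 96-plex Luminex direct immunoassay (dLIA). The beads carried pneumococcal capsular polysaccharides of 93 serotypes plus C-polysaccharides. Antibody was added at 0.1–12,500 ng/mL for 1 h, then PE anti-mouse IgG, and net MFI was read on a Bio-Plex 3D. Only the rhesus variable regions are printed; constant regions are murine IgG1/kappa/lambda, and the signal peptide is MGWSCIILFLVATATGVHS.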

[2] = target: pneumococcal polysaccharide Pn17A
Protocol: as §1

[3] = target: pneumococcal polysaccharide Pn17F
Protocol: as §1

[4] = target: pneumococcal polysaccharide Pn18A
Protocol: as §1

[5] = target: pneumococcal polysaccharide Pn18B
Protocol: as §1

[6] = target: pneumococcal polysaccharide Pn18C
Protocol: as §1

[7] = target: pneumococcal polysaccharide Pn18F
Protocol: as §1

[8] = target: pneumococcal polysaccharide Pn19A
Protocol: as §1

[9] = target: pneumococcal polysaccharide Pn19B
Protocol: as §1

[10] = target: pneumococcal polysaccharide Pn19C
Protocol: as §1

[11] = target: pneumococcal polysaccharide Pn19F
Protocol: as §1

[12] = target: pneumococcal polysaccharide Pn2
Protocol: as §1

[13] = antibody concentration 81.7561 ng/mL
[14] = antibody concentration 437.17 ng/mL
[15] = antibody concentration 2337.65 ng/mL
[16] = antibody concentration 12500 ng/mL
[17] = antibody concentration 0.1 ng/mL
[18] = antibody concentration 0.534724 ng/mL
[19] = antibody concentration 2.8593 ng/mL
[20] = antibody concentration 15.2894 ng/mL

B1: 4-99.5 (protein)
chain 1: QVQLQESGPGLVKPSETLSLTCAVSGYSISSGYYWGWIRQPPGKGLEYIGYISGSSGSPYYNPSLKSRVTISKDTSKNQFSLKLSSATAADTAVYYCARRQVGIGFDYWGQGVLVTVSS
chain 2: QAAPTQPPSVSGSPGQSVTISCTGTSSDIGYYNAVSWYQQHPGKAPKLMIYEVSKRPSGVSDRFSGSKSGNTASLTISGLQAEDEADYYCSSYAGSNTYIFGAGTRLTVL
- fluorescence intensity [1, 13]: 22.5 MFI
- fluorescence intensity [1, 14]: 26 MFI
- fluorescence intensity [1, 15]: 28.2 MFI
- fluorescence intensity [1, 16]: 37.5 MFI
- fluorescence intensity [2, 17]: 21.5 MFI
- fluorescence intensity [2, 18]: 22 MFI
- fluorescence intensity [2, 19]: 20.5 MFI
- fluorescence intensity [2, 20]: 20 MFI
- fluorescence intensity [2, 13]: 22 MFI
- fluorescence intensity [2, 14]: 21 MFI
- fluorescence intensity [2, 15]: 22.5 MFI
- fluorescence intensity [2, 16]: 24 MFI
- fluorescence intensity [3, 17]: 26.5 MFI
- fluorescence intensity [3, 18]: 27 MFI
- fluorescence intensity [3, 19]: 26.5 MFI
- fluorescence intensity [3, 20]: 27 MFI
- fluorescence intensity [3, 13]: 25.8 MFI
- fluorescence intensity [3, 14]: 28.5 MFI
- fluorescence intensity [3, 15]: 29.8 MFI
- fluorescence intensity [3, 16]: 30.8 MFI
- fluorescence intensity [4, 17]: 25 MFI
- fluorescence intensity [4, 18]: 24.5 MFI
- fluorescence intensity [4, 19]: 23.5 MFI
- fluorescence intensity [4, 20]: 22 MFI
- fluorescence intensity [4, 13]: 23.5 MFI
- fluorescence intensity [4, 14]: 25.5 MFI
- fluorescence intensity [4, 15]: 25 MFI
- fluorescence intensity [4, 16]: 30.5 MFI
- fluorescence intensity [5, 17]: 30 MFI
- fluorescence intensity [5, 18]: 31.8 MFI
- fluorescence intensity [5, 19]: 29 MFI
- fluorescence intensity [5, 20]: 29 MFI
- fluorescence intensity [5, 13]: 30 MFI
- fluorescence intensity [5, 14]: 32 MFI
- fluorescence intensity [5, 15]: 34 MFI
- fluorescence intensity [5, 16]: 40.5 MFI
- fluorescence intensity [6, 17]: 19.2 MFI
- fluorescence intensity [6, 18]: 19 MFI
- fluorescence intensity [6, 19]: 21.5 MFI
- fluorescence intensity [6, 20]: 19.5 MFI
- fluorescence intensity [6, 13]: 18.8 MFI
- fluorescence intensity [6, 14]: 20.5 MFI
- fluorescence intensity [6, 15]: 21.8 MFI
- fluorescence intensity [6, 16]: 27 MFI
- fluorescence intensity [7, 17]: 24.2 MFI
- fluorescence intensity [7, 18]: 23 MFI
- fluorescence intensity [7, 19]: 24 MFI
- fluorescence intensity [7, 20]: 23.5 MFI
- fluorescence intensity [7, 13]: 24.5 MFI
- fluorescence intensity [7, 14]: 26 MFI
- fluorescence intensity [7, 15]: 26.5 MFI
- fluorescence intensity [7, 16]: 34.5 MFI
- fluorescence intensity [8, 17]: 19.5 MFI
- fluorescence intensity [8, 18]: 20 MFI
- fluorescence intensity [8, 19]: 17.5 MFI
- fluorescence intensity [8, 20]: 19.8 MFI
- fluorescence intensity [8, 13]: 18.5 MFI
- fluorescence intensity [8, 14]: 19 MFI
- fluorescence intensity [8, 15]: 20 MFI
- fluorescence intensity [8, 16]: 26 MFI
- fluorescence intensity [9, 17]: 30.5 MFI
- fluorescence intensity [9, 18]: 32.5 MFI
- fluorescence intensity [9, 19]: 30 MFI
- fluorescence intensity [9, 20]: 28 MFI
- fluorescence intensity [9, 13]: 29.5 MFI
- fluorescence intensity [9, 14]: 30 MFI
- fluorescence intensity [9, 15]: 34.8 MFI
- fluorescence intensity [9, 16]: 80.5 MFI
- fluorescence intensity [10, 17]: 26 MFI
- fluorescence intensity [10, 18]: 26.2 MFI
- fluorescence intensity [10, 19]: 26 MFI
- fluorescence intensity [10, 20]: 25 MFI
- fluorescence intensity [10, 13]: 25.5 MFI
- fluorescence intensity [10, 14]: 25.5 MFI
- fluorescence intensity [10, 15]: 28 MFI
- fluorescence intensity [10, 16]: 54.5 MFI
- fluorescence intensity [11, 17]: 26 MFI
- fluorescence intensity [11, 18]: 26 MFI
- fluorescence intensity [11, 19]: 27.5 MFI
- fluorescence intensity [11, 20]: 27 MFI
- fluorescence intensity [11, 13]: 25.5 MFI
- fluorescence intensity [11, 14]: 28 MFI
- fluorescence intensity [11, 15]: 29.5 MFI
- fluorescence intensity [11, 16]: 36.5 MFI
- fluorescence intensity [12, 17]: 19.5 MFI
- fluorescence intensity [12, 18]: 21.2 MFI
- fluorescence intensity [12, 19]: 19.5 MFI
- fluorescence intensity [12, 20]: 21 MFI
- fluorescence intensity [12, 13]: 20.5 MFI
- fluorescence intensity [12, 14]: 22.5 MFI
